# The whole screen tested about 340,000 compounds, of which about 4,500 (1.3%) were called active. Inconclusive results, whose numbers are uncertain, are shown with a selection of clear calls. Calls come from the whole dose curve; as a rule, active = well fitted inhibition curve with a large enough effect; inconclusive = small, poorly fitted or top-dose-only effect, or another doubt; inactive = no such curve, though single readings can be large or run the other way. Potencies of inconclusive entries are doubtful fits and often do not repeat.
# Target: DNA polymerase beta (Homo sapiens) (UniProt P06746)
# Test: qHTS Assay for Inhibitors of DNA Polymerase Beta
# Details: Pol beta primer extension/strand displacement, fluorescence kinetic; series mostly up to 114 µM
# Method in brief: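 10 nM enzyme + cpd, 15 min RT; start with substrate 50 nM final; read 0 min and after 10 min RT. Corrected, normalized data; 4-parameter Hill curve fit.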
# Potency is the fitted concentration of half-maximal effect.
row,Structure (SMILES),Potency
1,CCN(C(=O)c1cc2c(s1)-c1ccccc1OC2)c1cc(OC)ccc1OC,"inconclusive: 0.141 µM [inhibitor, full curve]"
2,COc1ccc(NC(=O)N/C=C/c2ccco2)cc1,active: 25.1 µM
3,COc1ccc(OC)c(C2CC(=O)N3CN(c4ccccc4)CSC3=C2C#N)c1 (centres undefined),inactive
4,CC(=O)c1ccc(NC(=O)Cn2c(=O)nc(-c3ccccc3)c3ccccc32)cc1,inactive
5,O=C(O)CN1C(=O)/C(=C\c2cc([N+](=O)[O-])ccc2OCc2ccccc2Cl)SC1=S,active: 39.8 µM
6,CN1C(=O)/C(=C\c2cc(Br)cs2)c2ccccc21,"inconclusive: 3.98 µM [inhibitor, single point]"
7,O=C(Nc1ccc(N2CCN(C(=O)c3ccc(Cl)cc3)CC2)cc1)c1ccc([N+](=O)[O-])o1,"inconclusive: 89.1 µM [inhibitor, single point]"
8,CC1CCN(c2nc3ccccc3nc2SCC(=O)Nc2ccccc2C(C)C)CC1,"inconclusive: 70.8 µM [inhibitor, single point]"
9,COc1ccc2c(c1)c(=O)oc1cc(OCC(=O)NC3CCCCC3)ccc12,active: 22.4 µM
10,C=CCOc1ccc(/C=C2\SC(=S)N(NS(=O)(=O)c3ccc(C)cc3)C2=O)cc1,"inconclusive: 70.8 µM [inhibitor, single point]"
11,COC(=O)c1ccc(NC(=O)CN(c2ccc(OC)cc2)S(C)(=O)=O)cc1,"inconclusive: 70.8 µM [inhibitor, partial curve]"
12,Cc1[nH]c2ccccc2c1/C=N/NC(=O)c1cccc([N+](=O)[O-])c1,"inconclusive: 35.5 µM [inhibitor, partial curve]"
13,O=C(Nc1cccc(C(F)(F)F)c1)c1ccc2nc(-c3ccco3)c(-c3ccco3)nc2c1,active: 10 µM
14,COc1ccc(OC)c(Nc2nc(NCCO)c3ccccc3n2)c1,"inconclusive: 39.8 µM [inhibitor, single point]"
15,CCCCCCCCCCCCCCSCC(=O)O,"inconclusive: 31.6 µM [inhibitor, single point]"
16,Cc1cc(/C(N)=N/OC(=O)c2ccc(Cl)cc2)no1,"inconclusive: 50.1 µM [inhibitor, partial curve, poor fit]"
17,Cc1cc2ccccc2n1CCNC(=O)C1CCCCC1,"inconclusive: 89.1 µM [inhibitor, single point]"
18,Cc1ccc(Oc2cc([N+](=O)[O-])cc3c2C(=O)Nc2ccccc2O3)cc1,"inconclusive: 28.2 µM [inhibitor, partial curve]"
19,Cc1ccc2nc(N/N=C\c3ccc([N+](=O)[O-])o3)nc(-c3ccccc3)c2c1,active: 28.2 µM

# 2 of the compounds above, as tab-separated lines.
row	Structure (SMILES)	Potency
1	CCN(C(=O)c1cc2c(s1)-c1ccccc1OC2)c1cc(OC)ccc1OC	inconclusive: 0.141 µM [inhibitor, full curve]
16	Cc1cc(/C(N)=N/OC(=O)c2ccc(Cl)cc2)no1	inconclusive: 50.1 µM [inhibitor, partial curve, poor fit]
